Experimental data from publication PMC5372524, “Structural Basis of Native CXCL7 Monomer Binding to CXCR2 Receptor N-Domain and Glycosaminoglycan Heparin” (International Journal of Molecular Sciences, 2017).
No constants are given. Whether binding was seen depends on the method and setting. Some entries that bind do so weakly or less than the wild type.

Chains of the proteins cited; added tags and fusions are not shown. Residues count along the entry.
UniProt P25025, residues 1-43: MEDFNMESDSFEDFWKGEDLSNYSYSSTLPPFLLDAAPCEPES

Molecular target: T1, CXCL7 (NAP-2, neutrophil-activating peptide 2), wild type (UniProt P02775)
T1 sequence: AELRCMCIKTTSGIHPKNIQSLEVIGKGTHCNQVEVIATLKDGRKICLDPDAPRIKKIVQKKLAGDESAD
Assay: NMR titration; unlabelled CXCR2 N-domain (320 uM) titrated to 77 uM 15N WT CXCL7; series of 1H-15N HSQC spectra; 50 mM phosphate buffer, pH 6.0, 35 °C; final molar ratio CXCL7:CXCR2 N-domain 1:3.5; both purified

Substance: CXCR2 N-terminal domain peptide (residues 1 to 43) (from UniProt P25025 1-43) (domain or fragment)
- binding: binds
